In publication PMC5454368 one finds binding data, which are given here for three substances.

Sequences of proteins named here, by UniProt entry; tags and fusion partners are left off.
UniProt Q8IXJ9: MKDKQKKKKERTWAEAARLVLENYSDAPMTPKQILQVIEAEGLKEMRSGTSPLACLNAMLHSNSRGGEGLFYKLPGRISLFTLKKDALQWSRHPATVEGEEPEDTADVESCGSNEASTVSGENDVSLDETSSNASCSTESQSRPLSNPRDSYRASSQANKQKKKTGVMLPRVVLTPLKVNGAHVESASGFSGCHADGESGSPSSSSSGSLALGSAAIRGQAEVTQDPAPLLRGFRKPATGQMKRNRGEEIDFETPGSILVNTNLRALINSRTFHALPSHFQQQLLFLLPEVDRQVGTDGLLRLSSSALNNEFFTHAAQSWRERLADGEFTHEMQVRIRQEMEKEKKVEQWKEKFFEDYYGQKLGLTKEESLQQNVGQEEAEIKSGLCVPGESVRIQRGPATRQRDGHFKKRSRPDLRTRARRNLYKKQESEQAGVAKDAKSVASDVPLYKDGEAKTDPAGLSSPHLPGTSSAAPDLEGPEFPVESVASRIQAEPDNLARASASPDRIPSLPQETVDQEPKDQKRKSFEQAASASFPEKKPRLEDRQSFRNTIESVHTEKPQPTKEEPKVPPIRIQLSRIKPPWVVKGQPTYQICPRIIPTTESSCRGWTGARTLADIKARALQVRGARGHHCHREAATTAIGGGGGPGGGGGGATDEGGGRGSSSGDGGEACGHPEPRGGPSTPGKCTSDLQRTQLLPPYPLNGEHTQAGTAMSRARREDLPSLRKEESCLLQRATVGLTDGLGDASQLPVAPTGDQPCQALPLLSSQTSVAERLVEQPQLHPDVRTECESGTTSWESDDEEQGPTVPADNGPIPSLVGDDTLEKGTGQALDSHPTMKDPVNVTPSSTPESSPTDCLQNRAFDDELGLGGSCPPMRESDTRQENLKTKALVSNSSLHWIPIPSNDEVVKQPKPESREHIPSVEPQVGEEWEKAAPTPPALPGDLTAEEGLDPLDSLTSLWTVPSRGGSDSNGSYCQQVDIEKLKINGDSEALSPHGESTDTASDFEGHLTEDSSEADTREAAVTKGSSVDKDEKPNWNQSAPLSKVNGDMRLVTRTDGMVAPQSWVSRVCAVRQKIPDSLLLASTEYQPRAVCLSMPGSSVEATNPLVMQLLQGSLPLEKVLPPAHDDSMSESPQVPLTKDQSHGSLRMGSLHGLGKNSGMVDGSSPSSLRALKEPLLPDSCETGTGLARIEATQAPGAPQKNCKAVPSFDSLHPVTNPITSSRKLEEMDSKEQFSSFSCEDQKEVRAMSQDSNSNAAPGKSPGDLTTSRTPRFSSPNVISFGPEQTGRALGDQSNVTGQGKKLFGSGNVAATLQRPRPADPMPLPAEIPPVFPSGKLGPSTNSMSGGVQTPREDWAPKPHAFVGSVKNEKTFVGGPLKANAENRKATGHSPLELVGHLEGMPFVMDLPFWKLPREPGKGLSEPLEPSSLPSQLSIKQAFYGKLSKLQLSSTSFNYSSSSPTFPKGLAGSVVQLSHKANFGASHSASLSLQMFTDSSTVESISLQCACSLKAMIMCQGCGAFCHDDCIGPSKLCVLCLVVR
UniProt Q76L83: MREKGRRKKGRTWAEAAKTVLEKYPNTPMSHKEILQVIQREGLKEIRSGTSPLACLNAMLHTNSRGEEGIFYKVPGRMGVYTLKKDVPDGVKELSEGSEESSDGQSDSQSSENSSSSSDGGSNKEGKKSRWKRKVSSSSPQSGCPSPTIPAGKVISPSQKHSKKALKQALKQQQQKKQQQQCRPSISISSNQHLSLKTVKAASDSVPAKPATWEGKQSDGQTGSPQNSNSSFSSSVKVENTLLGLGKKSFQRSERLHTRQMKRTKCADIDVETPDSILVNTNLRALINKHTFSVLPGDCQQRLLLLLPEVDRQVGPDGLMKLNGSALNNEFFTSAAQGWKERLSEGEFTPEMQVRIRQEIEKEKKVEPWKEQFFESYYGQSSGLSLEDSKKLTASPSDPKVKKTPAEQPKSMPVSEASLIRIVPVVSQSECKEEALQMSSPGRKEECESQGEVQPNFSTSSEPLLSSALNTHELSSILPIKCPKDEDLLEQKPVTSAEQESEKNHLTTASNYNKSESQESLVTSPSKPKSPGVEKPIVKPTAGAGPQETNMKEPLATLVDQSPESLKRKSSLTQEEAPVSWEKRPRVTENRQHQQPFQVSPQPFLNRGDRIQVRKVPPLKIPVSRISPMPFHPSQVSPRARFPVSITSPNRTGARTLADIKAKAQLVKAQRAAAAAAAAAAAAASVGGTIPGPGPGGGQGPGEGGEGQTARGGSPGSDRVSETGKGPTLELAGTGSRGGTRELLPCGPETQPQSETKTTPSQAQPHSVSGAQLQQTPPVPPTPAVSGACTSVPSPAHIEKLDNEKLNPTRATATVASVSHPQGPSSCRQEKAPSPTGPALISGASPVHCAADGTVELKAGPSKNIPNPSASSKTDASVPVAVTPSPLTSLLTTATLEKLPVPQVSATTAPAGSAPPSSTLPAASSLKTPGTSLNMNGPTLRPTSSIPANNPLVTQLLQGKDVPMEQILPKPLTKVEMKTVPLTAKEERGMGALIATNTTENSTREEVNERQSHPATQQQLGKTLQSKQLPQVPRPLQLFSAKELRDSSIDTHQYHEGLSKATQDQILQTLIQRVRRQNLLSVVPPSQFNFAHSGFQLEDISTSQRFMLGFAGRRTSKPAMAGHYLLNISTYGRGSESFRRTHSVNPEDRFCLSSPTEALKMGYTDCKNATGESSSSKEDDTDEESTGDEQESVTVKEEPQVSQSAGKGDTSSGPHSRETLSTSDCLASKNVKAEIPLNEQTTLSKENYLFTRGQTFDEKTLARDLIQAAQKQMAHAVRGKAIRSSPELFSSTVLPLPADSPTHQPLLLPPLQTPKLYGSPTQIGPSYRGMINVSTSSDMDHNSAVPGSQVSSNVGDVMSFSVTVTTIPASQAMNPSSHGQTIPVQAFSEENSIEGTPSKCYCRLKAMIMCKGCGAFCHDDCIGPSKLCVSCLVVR
UniProt Q15022: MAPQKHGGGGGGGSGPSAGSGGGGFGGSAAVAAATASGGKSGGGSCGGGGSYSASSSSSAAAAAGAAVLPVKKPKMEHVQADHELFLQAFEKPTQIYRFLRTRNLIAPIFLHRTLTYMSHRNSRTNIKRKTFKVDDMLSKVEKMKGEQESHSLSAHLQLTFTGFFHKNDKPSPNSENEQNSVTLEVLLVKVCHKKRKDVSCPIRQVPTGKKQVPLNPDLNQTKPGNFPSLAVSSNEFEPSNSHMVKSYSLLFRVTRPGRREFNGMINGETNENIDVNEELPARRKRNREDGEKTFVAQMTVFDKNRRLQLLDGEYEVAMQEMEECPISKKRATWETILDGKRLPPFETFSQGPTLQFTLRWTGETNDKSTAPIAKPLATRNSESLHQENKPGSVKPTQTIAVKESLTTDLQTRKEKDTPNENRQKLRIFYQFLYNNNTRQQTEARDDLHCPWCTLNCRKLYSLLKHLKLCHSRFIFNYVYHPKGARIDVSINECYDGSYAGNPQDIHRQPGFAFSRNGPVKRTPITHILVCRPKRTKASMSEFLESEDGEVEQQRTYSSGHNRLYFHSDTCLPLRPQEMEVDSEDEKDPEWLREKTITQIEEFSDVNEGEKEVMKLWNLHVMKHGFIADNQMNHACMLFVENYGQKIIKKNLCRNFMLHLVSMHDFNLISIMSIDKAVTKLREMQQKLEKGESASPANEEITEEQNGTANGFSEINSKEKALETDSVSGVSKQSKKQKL
UniProt Q01196: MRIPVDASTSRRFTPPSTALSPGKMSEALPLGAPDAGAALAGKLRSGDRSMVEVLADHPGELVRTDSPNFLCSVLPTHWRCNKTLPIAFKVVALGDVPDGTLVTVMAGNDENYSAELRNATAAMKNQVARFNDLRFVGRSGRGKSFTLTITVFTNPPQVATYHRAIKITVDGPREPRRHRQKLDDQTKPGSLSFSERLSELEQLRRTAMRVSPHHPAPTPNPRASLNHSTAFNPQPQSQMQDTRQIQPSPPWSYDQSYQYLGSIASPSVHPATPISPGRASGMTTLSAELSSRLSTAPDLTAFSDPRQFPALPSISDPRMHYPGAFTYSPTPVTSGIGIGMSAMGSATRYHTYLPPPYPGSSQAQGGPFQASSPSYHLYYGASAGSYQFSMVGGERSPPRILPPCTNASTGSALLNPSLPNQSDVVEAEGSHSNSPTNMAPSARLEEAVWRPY
UniProt Q92560: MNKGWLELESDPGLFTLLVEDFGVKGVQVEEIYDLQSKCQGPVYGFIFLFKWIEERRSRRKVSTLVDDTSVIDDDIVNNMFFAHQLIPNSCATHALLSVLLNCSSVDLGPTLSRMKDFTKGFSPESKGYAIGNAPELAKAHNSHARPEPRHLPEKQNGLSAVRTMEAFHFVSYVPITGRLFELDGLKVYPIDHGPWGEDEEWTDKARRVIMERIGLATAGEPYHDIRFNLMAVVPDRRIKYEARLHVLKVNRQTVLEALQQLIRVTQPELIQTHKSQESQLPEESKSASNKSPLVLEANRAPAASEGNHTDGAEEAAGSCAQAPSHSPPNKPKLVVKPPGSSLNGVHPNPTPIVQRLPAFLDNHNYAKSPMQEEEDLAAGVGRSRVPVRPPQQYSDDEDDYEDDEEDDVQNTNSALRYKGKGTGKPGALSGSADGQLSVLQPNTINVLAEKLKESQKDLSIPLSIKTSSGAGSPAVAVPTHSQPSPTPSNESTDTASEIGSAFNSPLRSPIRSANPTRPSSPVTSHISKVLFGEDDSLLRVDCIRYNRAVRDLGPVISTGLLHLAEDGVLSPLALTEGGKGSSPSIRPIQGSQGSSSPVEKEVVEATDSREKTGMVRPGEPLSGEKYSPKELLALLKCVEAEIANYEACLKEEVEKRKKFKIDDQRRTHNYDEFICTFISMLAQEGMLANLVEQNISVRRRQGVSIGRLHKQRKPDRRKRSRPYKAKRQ

No constants are given. Whether binding was seen depends on the method and setting. In cells and extracts the contact can be indirect. Some entries that bind do so weakly or less than the wild type.

One assay addresses ASXL1 (UniProt Q8IXJ9). As to the kind of experiment: co-IP; co-immunoprecipitation (Supplementary Fig. 6a,b); cells, baits and conditions not told in the text shown.
For the next assay, the target named is ASXL2 (UniProt Q76L83). Described as above.

SUZ12 (from UniProt Q15022 1-739): the binding entry in the assay with ASXL1 was “binds”.

RUNX1 (from UniProt Q01196 1-453): the binding entry with ASXL2 was “no binding”.

As for BAP1 (from UniProt Q92560 1-729), the binding entry with ASXL1 is given as “binds”.
